These are yes or no findings as the source states them, for the method shown. Where a sequence is shown, tags or fusion partners need not be part of it.
What was measured:
[1] = biological target: T1, NLS-RFP-AKR2A (three tandem copies of the SV-40 large T antigen NLS fused to RFP and Arabidopsis AKR2A) (Arabidopsis) (UniProt Q9SAR5); assay: nuclear mislocalization assay; co-expression in tobacco BY-2 cells (biolistic bombardment, 500 ng of the plasmid for the GFP fusion protein); relocation of the partner to the nucleus by NLS-RFP-AKR2A, against NLS-RFP alone, seen by epi-(immuno)fluorescence microscopy
T1 sequence: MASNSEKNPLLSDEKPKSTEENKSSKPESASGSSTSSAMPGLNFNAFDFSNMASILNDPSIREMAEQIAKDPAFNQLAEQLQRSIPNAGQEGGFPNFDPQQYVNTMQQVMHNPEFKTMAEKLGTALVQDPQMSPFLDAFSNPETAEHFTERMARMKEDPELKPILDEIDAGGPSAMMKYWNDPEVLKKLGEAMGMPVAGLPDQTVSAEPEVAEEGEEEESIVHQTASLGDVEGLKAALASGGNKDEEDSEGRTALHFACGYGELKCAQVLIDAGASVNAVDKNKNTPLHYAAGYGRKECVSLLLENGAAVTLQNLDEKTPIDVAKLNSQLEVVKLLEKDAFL

[2] = biological target: T1, NLS-RFP-AKR2A (three tandem copies of the SV-40 large T antigen NLS fused to RFP and Arabidopsis AKR2A) (Arabidopsis); assay: nuclear mislocalization assay

Substance | binding [1] | binding [2]
myc-OEP9ΔCTS (N-terminal myc-tagged OEP9 with its hydrophilic C-terminal sequence deleted) (Arabidopsis) (domain or fragment) | no binding | –
myc-Cb5 (myc-tagged mitochondrial isoform of tung tree cytochrome b5) | no binding | –
myc-Cb5-HA (myc-Cb5 with the hemagglutinin epitope tag added to its C terminus) (tung tree (Aleurites fordii)) | – | no binding
